Consider one molecule from patent publication US20210147531A1 (AstraZeneca / MedImmune, published 2021).

No constants are given. Whether binding was seen depends on the method and setting.

For assay [1], the target named is T1, human VEGF121 (human, UniProt P15692-9 27-147).
T1 construct: the isoform is VEGF121
T1 sequence (looked up): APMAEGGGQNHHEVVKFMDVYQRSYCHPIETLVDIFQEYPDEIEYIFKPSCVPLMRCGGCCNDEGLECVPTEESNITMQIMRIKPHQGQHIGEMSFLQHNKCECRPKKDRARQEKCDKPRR
Briefly: condition: 2-fold serial dilution starting from 8 nM; ELISA, coated human VEGF121. A general note: ELISA stands for enzyme-linked immunosorbent assay.

The target in assay [2] is T1, human VEGF121. Description: condition: about 70 nM (last point just below 100 nM); ELISA on human VEGF121 (Example 8), OD 450 nm against antibody concentration.

B1: E06 full length IgG (antibody, V domains shown)
VH: EVQLLESGGGLVQPGGSLRLSCAASGFTFSWYEMYWVRQAPGKGLEWVSSISPSGGWTMYADSVKGRFTISRDNSKNTLYLQMNSLRAEDTAVYYCATPLYSSDGLSAGDIWGQGTMVTVSS
VL: DIQMTQSPATLSLSPGERATLSCRASQSVSSSYLAWYQQKPGQAPRLLIYGASSRATGIPDRFSGSGSGTDFTLTISRLEPEDFATYYCQQSYSTPSFGQGTRLEITR
notes: also called antibody E06; Wt (E06)
Regarding B1, the binding entry with human VEGF121 [1] and in the assay with human VEGF121 [2] was “no binding” each time.
